Some of the results follow.
The compounds below were run on T1, CTL2-GFP (C. trachomatis L2/434/Bu, GFP-expressing). Conditions: bulk GFP, single well; 28.5 h, 10 µM; inhibitor.
T1 construct: L2/434/Bu, GFP-expressing
Set-up: species or system HeLa; Intracellular C. trachomatis growth in HeLa cells, bulk GFP fluorescence relative to DMSO

Row | SMILES | % of control remaining [%]
1 | O=C(Nc1nnc(C2=COCCO2)o1)c1cc(Cl)cc(Cl)c1 [CBK287418] | 142.067
2 | COc1ccc2c(c1)C1(CC(=O)N(CC(=O)N(C)OC)C1=O)C(=O)N2CCCCOc1ccccc1 (stereo not shown) [CBK076032] | 145.508
3 | CSc1ncc(Cl)c(C(=O)Nc2nnc(SC/C=C/c3ccccc3)s2)n1 [CBK268691] | 139.453
4 | COc1ccc(-c2c(C)nc(N)nc2-c2ccc(OC)cc2O)cc1 [CBK288186] | 121.428
5 | Cc1noc(C)c1C(=O)N1C2CCC1CC(c1ccc(F)cc1)C2 (stereo not shown) [CBK283738] | 106.496
6 | COc1cnc(-c2cnn(C)c2)c(NC(=O)C2CC2)n1 [CBK145328] | 110.301
7 | Cc1cc(CS(=O)(=O)N2CCOCC2c2cccc(F)c2)no1 (stereo not shown) [CBK304093] | 148.508
8 | O=C(Nc1cc(Cl)cc(Cl)c1)c1ccc([N+](=O)[O-])s1 [CBK066840] | 94.46
9 | COc1cc(C(=O)Oc2cccc(Nc3ncnc4ccccc34)c2)cc(OC)c1OC [CBK264908] | 93.2228
10 | C[C@H](Nc1cncc(-c2cccs2)n1)c1ccccc1 [CBK065719] | 104.427
11 | CCc1c(C)nc(C)nc1N1CCCn2nc(C(O)C3CC3)cc2C1 (stereo not shown) [CBK306778] | 87.827
12 | CCN(CC(=O)NC(C)(C)C)Cc1nc(-c2cccc(Br)c2)no1 [CBK304230] | 92.4997
13 | CCC(C)(Sc1nc(C)ccc1C#N)C(=O)O (stereo not shown) [CBK287098] | 101.971
14 | CN(CC(=O)O)C(=O)OCc1ccccc1 [CBK012752] | 111.627
15 | CCCCC(c1cccnc1)N(C)C(=O)CCc1ccnn1C (stereo not shown) [CBK306664] | 90.7649
16 | COc1cc(-c2cnc(N)c(NCC(C)(C)CO)n2)cc(OC)c1OC [CBK063523] | 106.753
17 | O=C(Nc1sc2c(c1C(=O)NCc1ccco1)CCCC2)c1sc2ccccc2c1Cl [CBK265086] | 100
18 | O=C(Nc1ccncc1)c1snnc1-c1ccccc1 [CBK287982] | 131.294
19 | COCc1cc2n[nH]c(=O)n2c(-c2ccccc2)n1 [CBK288507] | 94.1774
20 | CCNS(=O)(=O)c1ccc(Cn2nc(NC(=O)C3COc4ccccc4O3)c3ccccc32)cc1 (stereo not shown) [CBK061613] | 75.8
21 | Cn1c([C@H]2CCN(C(=O)c3cnccn3)C2)nc2ccccc21 [CBK289416] | 115.896
22 | COc1cccc(CNc2ccc(C3c4ccsc4CCN3C(C)=O)cc2)c1 (stereo not shown) [CBK286443] | 106.826

In another format: results already given.
Row,SMILES,% of control remaining [%]
8,O=C(Nc1cc(Cl)cc(Cl)c1)c1ccc([N+](=O)[O-])s1 [CBK066840],94.46
9,COc1cc(C(=O)Oc2cccc(Nc3ncnc4ccccc34)c2)cc(OC)c1OC [CBK264908],93.2228
10,C[C@H](Nc1cncc(-c2cccs2)n1)c1ccccc1 [CBK065719],104.427
11,CCc1c(C)nc(C)nc1N1CCCn2nc(C(O)C3CC3)cc2C1 (stereo not shown) [CBK306778],87.827
12,CCN(CC(=O)NC(C)(C)C)Cc1nc(-c2cccc(Br)c2)no1 [CBK304230],92.4997
